# Test results taken from PubChem BioAssay (EPA / NIEHS).
# The chains behind the UniProt entries cited, without tags or fusion partners. Where a name states a change or a piece, a line headed by the entry shows the natural chain unless it says otherwise.
# UniProt P37231: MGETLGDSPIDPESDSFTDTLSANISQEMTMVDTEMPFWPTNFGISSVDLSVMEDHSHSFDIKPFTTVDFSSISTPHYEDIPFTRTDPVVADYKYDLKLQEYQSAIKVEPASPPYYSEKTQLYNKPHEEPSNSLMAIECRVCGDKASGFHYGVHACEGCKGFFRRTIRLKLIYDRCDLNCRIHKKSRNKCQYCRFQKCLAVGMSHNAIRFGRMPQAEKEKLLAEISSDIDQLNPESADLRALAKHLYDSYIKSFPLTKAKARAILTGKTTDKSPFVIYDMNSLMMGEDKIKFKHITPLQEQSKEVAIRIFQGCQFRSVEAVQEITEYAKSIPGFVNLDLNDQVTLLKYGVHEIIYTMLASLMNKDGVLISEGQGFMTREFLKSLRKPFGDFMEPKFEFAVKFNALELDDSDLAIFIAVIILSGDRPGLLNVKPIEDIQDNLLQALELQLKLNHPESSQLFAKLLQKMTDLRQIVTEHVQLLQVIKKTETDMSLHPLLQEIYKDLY
# UniProt P13631, whole entry, looked up: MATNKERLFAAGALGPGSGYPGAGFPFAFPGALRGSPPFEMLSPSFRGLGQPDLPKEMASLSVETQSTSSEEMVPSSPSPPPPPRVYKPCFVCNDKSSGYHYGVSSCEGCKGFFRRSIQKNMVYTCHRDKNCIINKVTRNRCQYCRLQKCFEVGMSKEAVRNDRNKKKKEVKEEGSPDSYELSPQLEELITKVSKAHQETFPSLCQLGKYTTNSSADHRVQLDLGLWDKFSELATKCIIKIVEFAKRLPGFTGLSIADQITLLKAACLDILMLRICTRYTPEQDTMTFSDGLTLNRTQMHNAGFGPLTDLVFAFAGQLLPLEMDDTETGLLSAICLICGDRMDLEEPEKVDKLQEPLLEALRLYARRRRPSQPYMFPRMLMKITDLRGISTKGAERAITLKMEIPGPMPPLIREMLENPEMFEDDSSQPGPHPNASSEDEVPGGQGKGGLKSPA
# UniProt Q92753: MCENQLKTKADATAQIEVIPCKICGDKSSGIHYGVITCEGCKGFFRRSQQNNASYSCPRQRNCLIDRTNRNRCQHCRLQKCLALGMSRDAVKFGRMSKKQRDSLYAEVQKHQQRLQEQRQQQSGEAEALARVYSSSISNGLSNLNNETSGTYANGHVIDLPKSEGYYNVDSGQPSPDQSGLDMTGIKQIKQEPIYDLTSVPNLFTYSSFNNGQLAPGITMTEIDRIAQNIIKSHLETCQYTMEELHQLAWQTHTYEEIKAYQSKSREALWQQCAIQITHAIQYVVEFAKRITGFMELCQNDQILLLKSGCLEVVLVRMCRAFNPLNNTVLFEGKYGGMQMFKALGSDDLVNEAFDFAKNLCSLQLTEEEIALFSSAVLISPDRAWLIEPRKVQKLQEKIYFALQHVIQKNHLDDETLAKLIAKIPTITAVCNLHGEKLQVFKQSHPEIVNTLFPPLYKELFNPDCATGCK
# UniProt P10827: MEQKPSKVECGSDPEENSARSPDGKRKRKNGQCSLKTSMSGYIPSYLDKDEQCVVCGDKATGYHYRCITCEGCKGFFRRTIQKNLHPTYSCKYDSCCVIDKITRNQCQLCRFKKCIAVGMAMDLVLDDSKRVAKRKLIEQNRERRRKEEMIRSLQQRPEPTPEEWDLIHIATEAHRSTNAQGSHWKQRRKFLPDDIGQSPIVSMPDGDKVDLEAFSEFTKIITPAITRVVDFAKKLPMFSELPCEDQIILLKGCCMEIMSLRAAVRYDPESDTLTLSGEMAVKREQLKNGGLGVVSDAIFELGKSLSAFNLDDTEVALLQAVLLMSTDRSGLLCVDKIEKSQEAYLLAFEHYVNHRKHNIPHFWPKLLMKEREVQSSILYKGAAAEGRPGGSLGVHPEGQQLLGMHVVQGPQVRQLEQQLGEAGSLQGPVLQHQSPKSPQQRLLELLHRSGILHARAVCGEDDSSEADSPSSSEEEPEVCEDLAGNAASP
# UniProt P11473: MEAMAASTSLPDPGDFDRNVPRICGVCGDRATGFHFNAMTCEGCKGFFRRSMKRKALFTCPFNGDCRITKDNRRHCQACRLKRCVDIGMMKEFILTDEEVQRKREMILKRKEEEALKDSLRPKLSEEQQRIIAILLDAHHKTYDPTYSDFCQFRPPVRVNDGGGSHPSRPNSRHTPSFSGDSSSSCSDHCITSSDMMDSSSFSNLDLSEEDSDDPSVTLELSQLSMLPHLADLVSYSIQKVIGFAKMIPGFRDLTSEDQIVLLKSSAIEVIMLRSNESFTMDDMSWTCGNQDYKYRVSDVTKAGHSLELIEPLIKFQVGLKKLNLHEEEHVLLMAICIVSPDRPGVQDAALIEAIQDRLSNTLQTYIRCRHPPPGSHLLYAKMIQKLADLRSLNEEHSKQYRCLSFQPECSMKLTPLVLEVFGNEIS
# UniProt P51449: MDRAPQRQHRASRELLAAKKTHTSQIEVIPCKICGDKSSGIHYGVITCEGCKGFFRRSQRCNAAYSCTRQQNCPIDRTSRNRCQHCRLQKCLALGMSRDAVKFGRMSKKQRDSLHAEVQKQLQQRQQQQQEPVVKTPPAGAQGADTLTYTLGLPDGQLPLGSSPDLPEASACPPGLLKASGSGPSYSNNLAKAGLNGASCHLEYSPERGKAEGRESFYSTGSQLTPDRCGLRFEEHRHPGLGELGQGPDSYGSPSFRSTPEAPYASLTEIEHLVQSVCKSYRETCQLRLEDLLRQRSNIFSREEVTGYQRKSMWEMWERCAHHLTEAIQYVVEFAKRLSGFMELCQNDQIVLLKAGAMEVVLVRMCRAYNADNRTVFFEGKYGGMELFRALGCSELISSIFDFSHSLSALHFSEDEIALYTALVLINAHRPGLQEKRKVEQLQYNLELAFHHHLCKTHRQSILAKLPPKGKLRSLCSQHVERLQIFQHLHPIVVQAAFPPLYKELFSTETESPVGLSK
# UniProt P28702: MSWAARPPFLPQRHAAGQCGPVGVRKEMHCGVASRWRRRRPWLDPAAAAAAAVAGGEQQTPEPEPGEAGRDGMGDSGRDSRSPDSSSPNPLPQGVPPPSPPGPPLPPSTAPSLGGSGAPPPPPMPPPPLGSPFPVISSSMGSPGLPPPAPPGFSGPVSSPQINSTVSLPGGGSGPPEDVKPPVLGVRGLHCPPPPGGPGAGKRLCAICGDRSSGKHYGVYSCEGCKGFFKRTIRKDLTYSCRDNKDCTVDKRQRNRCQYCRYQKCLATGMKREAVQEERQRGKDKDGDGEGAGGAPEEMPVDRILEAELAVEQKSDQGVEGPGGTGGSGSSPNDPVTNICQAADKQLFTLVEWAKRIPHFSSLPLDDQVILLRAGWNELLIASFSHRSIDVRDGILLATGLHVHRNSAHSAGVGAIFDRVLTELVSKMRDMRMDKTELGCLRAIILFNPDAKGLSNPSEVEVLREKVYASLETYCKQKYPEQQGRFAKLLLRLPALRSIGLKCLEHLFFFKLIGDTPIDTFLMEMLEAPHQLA
# UniProt P19793: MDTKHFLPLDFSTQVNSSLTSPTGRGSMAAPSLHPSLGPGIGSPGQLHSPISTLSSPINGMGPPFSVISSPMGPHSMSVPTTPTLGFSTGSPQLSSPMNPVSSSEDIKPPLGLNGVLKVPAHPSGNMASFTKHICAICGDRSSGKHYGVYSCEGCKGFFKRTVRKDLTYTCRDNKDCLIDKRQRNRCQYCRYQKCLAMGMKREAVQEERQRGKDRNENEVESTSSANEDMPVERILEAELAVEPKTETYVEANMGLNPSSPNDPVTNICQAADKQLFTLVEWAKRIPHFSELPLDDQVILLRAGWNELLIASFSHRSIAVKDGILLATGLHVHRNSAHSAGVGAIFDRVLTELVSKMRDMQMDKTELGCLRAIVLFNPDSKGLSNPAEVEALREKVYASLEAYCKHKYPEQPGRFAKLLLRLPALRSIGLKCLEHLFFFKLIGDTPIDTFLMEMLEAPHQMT
# Several values for one entry are separate records, joined by “and”; a condition that tells them apart may be missing. Identical values can stand only once. The shares of active, inactive and inconclusive entries below differ from those in the screen. A potency beside an inconclusive call is a rough fit, not a confirmed value. Activity calls are given as the source filed them. How the source made its calls: active means hit-call score of the fitted dose curve at least 0.9, where 1 is the maximum; inconclusive means response in the unintended direction; inactive means score below 0.9.
# Assays:
# [1] = biological target: Peroxisome proliferator-activated receptor gamma (Homo sapiens) (UniProt P37231); assay: ATG_PPARg_TRANS: Attagene TRANS-FACTORIAL HepG2 Assay for human Peroxisome Proliferator-activated Receptor-gamma (PPARg) (AID 2283007)
# In short: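 Chimeric NR-Gal4 transactivation is measured in transiently transfected HepG2 cells by reporter mRNA induction at 24 h. Detection uses RT-PCR with fluorescent labelling and capillary electrophoresis; DMSO defines baseline.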
# [2] = biological target: human Retinoic Acid Receptor gamma (RARg), RARG (gene 5916) (UniProt P13631); assay: ATG_RARg_TRANS: Attagene TRANS-FACTORIAL HepG2 Assay for human Retinoic Acid Receptor gamma (RARg) (AID 2283009);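 on AC50: AC50 is for reporter induction above DMSO meaning RARg activation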
# In short: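 Readout: reporter transcript levels via RT-PCR, 6-FAM primer-extension labelling, HpaI digestion and capillary electrophoresis. Cells: HepG2 carrying transfected RARg-GAL4 chimera plus UAS reporter set. Dosing 24 h; DMSO negative control.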
# [3] = biological target: human RAR-related Orphan Receptor beta (RORb), RORB (gene 6096) (UniProt Q92753); assay: ATG_RORb_TRANS: Attagene TRANS-FACTORIAL HepG2 Assay for human RAR-related Orphan Receptor beta (RORb) (AID 2283010);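 on AC50: potency for increased reporter mRNA meaning activation of RORb-Gal4 chimera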
# In short: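 HepG2, transient MRTU transfection (GAL4-UAS reporters, exogenous NR-Gal4 chimeras); 24 h compound exposure; total RNA → RT-PCR → 6-FAM primer extension → HpaI digest → CE fluorescence. Positive direction vs DMSO baseline.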
# [4] = biological target: human Thyroid Receptor alpha (THRa1), THRA (gene 7067) (UniProt P10827); assay: ATG_THRa1_TRANS: Attagene TRANS-FACTORIAL HepG2 Assay for human Thyroid Receptor alpha (THRa1) (AID 2283014)
# In short: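 HepG2 cells transiently transfected with multiplexed GAL4-UAS reporter units for exogenous chimeric THRa1-Gal4; reporter mRNA measured 24 h after dosing by RT-PCR, 6-FAM labelling, HpaI digestion and capillary electrophoresis. Gain-of-signal fitted versus DMSO baseline.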
# [5] = biological target: human Vitamin D Receptor (VDR), VDR (gene 7421) (UniProt P11473); assay: ATG_VDR_TRANS: Attagene TRANS-FACTORIAL HepG2 Assay for human Vitamin D Receptor (VDR) (AID 2283022)
# In short: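 HepG2 cells were transiently transfected with multiple GAL4-UAS reporter units, so signal reflects exogenous chimeric receptor-Gal4 activity. After 24 h compound exposure, reporter mRNA was measured by RT-PCR, fluorescent labelling and capillary electrophoresis, fitted for gain of signal versus DMSO.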
# [6] = biological target: human RAR-related Orphan Receptor gamma (RORg), RORC (gene 6097) (UniProt P51449); assay: ATG_RORg_TRANS: Attagene TRANS-FACTORIAL HepG2 Assay for human RAR-related Orphan Receptor gamma (RORg) (AID 2283011);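 on AC50: potency for induction of reporter transcripts above DMSO so activators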
# In short: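 Readout: reporter transcript induction (RT-PCR, fluorescent primer extension, capillary electrophoresis) after 24 h compound exposure of transiently transfected HepG2 cells carrying a RORg-Gal4 chimera and GAL4-UAS reporters; DMSO served as baseline, with increasing signal fitted.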
# [7] = biological target: human Retinoid X Receptor beta (RXRb), RXRB (gene 6257) (UniProt P28702); assay: ATG_RXRb_TRANS: Attagene TRANS-FACTORIAL HepG2 Assay for human Retinoid X Receptor beta (RXRb) (AID 2283013)
# In short: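 Read-out: reporter mRNA induction via RT-PCR plus capillary electrophoresis fluorescence, analysed as signal increase relative to DMSO. Cells were human HepG2, transiently transfected with GAL4-UAS reporter constructs and chimeric receptor-Gal4 fusions, dosed for 24 h.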
# [8] = biological target: Retinoic acid receptor RXR-alpha (Homo sapiens) (UniProt P19793); assay: ATG_RXRa_TRANS: Attagene TRANS-FACTORIAL HepG2 Assay for human Retinoid X Receptor alpha (RXRa) (AID 2283012)
# In short: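 Read-out: fluorescent reporter-transcript fragments quantified by capillary electrophoresis after RT-PCR. Transiently transfected HepG2 cells carrying GAL4-UAS reporters and NR-GAL4 chimeras were exposed to chemical for 24 h; activity scored as increase over DMSO.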
structure (smiles),measurement,setting,value
CC1=NN(c2ccc(S(=O)(=O)O)cc2)C(=O)C1,AC50,[1],inconclusive: 100 µM
same,outcome,[2],inactive
same,outcome,[6],inactive
same,outcome,[7],inactive
CSc1ccc(Cl)cc1,AC50,[1],inconclusive: 100 µM
same,AC50,[2],inconclusive: 100 µM
same,outcome,[3],inactive
same,AC50,[8],inconclusive: 100 µM
same,AC50,[7],inconclusive: 100 µM
same,outcome,[4],inactive
same,AC50,[5],inconclusive: 100 µM
C=O,AC50,[1],inconclusive: 0.00951 µM
same,outcome,[2],inactive
same,AC50,[3],inconclusive: 28.1 µM
same,outcome,[7],inactive
same,outcome,[5],inactive
O=C(N[C@@H](Cc1ccccc1)[C@@H](O)C(=O)N1C[C@@H](O)[C@@H](O)C1)c1cc2cc(Cl)ccc2[nH]1,outcome,[1],inactive
same,AC50,[2],inconclusive: 27.4 µM
same,outcome,[6],inactive
same,outcome,[8],inactive
same,AC50,[7],inconclusive: 48.2 µM
same,AC50,[4],inconclusive: 179 µM
Fc1ccc(Br)cc1,AC50,[1],inconclusive: 100 µM
same,outcome,[2],inactive
same,AC50,[3],inconclusive: 180 µM
same,AC50,[7],active: 156 µM
same,AC50,[4],inconclusive: 100 µM
Cc1oncc1C(=O)Nc1ccc(C(F)(F)F)cc1,AC50,[1],active: 41.1 µM
same,outcome,[2],inactive
same,AC50,[6],inconclusive: 7.55 µM
same,AC50,[7],inconclusive: 100 µM
CC(C)CCOC(=O)c1ccccc1,AC50,[1],inconclusive: 100 µM
same,AC50,[2],inconclusive: 100 µM
same,AC50,[6],inconclusive: 100 µM
same,outcome,[8],inactive
same,outcome,[7],inactive
same,AC50,[5],inconclusive: 5.35 µM
Cc1cc(=O)n(-c2ccccc2)n1C,AC50,[1],inconclusive: 100 µM
same,outcome,[2],inactive
same,outcome,[3],inactive
same,outcome,[7],inactive
C=Cc1cccc(C)c1,outcome,[1],inactive
same,AC50,[2],inconclusive: 36.1 µM
same,outcome,[6],inactive
same,AC50,[8],inconclusive: 100 µM
same,outcome,[7],inactive
same,outcome,[4],inactive
same,outcome,[5],inactive
CCC(C)(C)c1cc(O)c(C(C)(C)CC)cc1O,outcome,[1],inactive
same,AC50,[3],inconclusive: 24.7 µM
same,AC50,[6],inconclusive: 23.9 µM
same,AC50,[7],active: 59.9 µM
O=C(O)C(F)(F)C(F)(F)C(F)(F)C(F)(F)C(F)(F)C(F)(F)C(F)F,AC50,[1],active: 41.8 µM
same,AC50,[2],inconclusive: 100 µM
same,outcome,[7],inactive
same,outcome,[5],inactive
c1ccc2cc3ccccc3cc2c1,AC50,[1],inconclusive: 100 µM
same,AC50,[3],inconclusive: 19.8 µM
same,AC50,[6],inconclusive: 100 µM
same,AC50,[7],inconclusive: 1.29 µM
CN[C@H]1CC[C@@H](c2ccc(Cl)c(Cl)c2)c2ccc(S(N)(=O)=O)cc21,outcome,[1],inactive
same,AC50,[3],inconclusive: 3.7 µM
same,AC50,[6],inconclusive: 3.7 µM
same,AC50,[8],inconclusive: 0.149 µM
same,AC50,[7],inconclusive: 3.7 µM
same,AC50,[4],inconclusive: 0.974 µM
same,AC50,[5],inconclusive: 3.7 µM
C=C(C)C(=O)OCC(CC)(COC(=O)C(=C)C)COC(=O)C(=C)C,AC50,[1],active: 98.5 µM
same,AC50,[3],inconclusive: 27.3 µM
same,AC50,[6],inconclusive: 98.5 µM
same,AC50,[8],inconclusive: 98.5 µM
same,AC50,[4],inconclusive: 98.5 µM
CCCCCCC(=O)OCC,AC50,[1],inconclusive: 110 µM
same,outcome,[3],inactive
same,AC50,[6],inconclusive: 0.114 µM
same,outcome,[8],inactive
same,AC50,[7],active: 32.5 µM
CCO[Si](CCC(F)(F)C(F)(F)C(F)(F)C(F)(F)C(F)(F)C(F)(F)F)(OCC)OCC,outcome,[1],inactive
same,AC50,[3],inconclusive: 25 µM and inconclusive: 50 µM
same,AC50,[6],inconclusive: 50 µM
same,outcome,[6],inactive
CCCSc1ccc2nc(NC(=O)OC)[nH]c2c1,AC50,[1],inconclusive: 58.6 µM
same,AC50,[2],inconclusive: 19.8 µM
same,outcome,[8],inactive
CN(C)CCCN1c2ccccc2Sc2ccc(Cl)cc21,AC50,[1],inconclusive: 11.1 µM
same,AC50,[3],inconclusive: 11.1 µM
same,AC50,[6],inconclusive: 11.1 µM
same,outcome,[8],inactive
same,AC50,[7],inconclusive: 11.1 µM
same,AC50,[4],inconclusive: 11.1 µM
CC(C)=CCCC(C)CCOC=O (stereo not given),outcome,[1],inactive
same,AC50,[2],inconclusive: 146 µM
same,outcome,[8],inactive
